Measurements published in publication PMC4422613.
These are yes or no findings as the source states them, for the method shown. In cells and extracts the contact can be indirect. A result given as binding can be weak or reduced; the word gives no strength. For some of these results: Sequences can lack the tags named with a protein.

By UniProt entry, the sequences of proteins in these tests, tags left out. Where a name states a change or a piece, a line headed by the entry shows the natural chain unless it says otherwise.
UniProt F4K567: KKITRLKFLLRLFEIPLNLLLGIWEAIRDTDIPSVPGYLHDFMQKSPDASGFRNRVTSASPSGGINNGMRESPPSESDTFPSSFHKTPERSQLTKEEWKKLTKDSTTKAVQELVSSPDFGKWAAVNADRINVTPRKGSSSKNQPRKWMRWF
UniProt Q0WVK0: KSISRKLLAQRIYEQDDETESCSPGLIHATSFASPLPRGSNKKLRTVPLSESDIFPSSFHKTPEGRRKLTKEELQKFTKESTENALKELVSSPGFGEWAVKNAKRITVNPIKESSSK
UniProt P41917: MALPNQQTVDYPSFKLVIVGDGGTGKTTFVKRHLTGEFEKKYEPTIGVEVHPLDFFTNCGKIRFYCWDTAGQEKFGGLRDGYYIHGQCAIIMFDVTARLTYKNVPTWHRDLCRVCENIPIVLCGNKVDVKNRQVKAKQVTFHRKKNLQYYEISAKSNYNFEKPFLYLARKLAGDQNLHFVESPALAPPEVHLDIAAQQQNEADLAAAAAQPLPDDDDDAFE

What was measured:
[1] = target: At_Nemp-B Ct (GFP-tagged C-terminal region) (Arabidopsis thaliana) (UniProt F4K567); assay: co-IP; Xenopus embryos co-injected with mRNAs; conditions as in Fig 3; immunoprecipitation against HA, western blot with anti-Myc or anti-HA
[2] = target: At_Nemp-A Ct (GFP-tagged C-terminal region) (Arabidopsis thaliana) (UniProt Q9SHQ6); assay: as above
[3] = target: At_Nemp-C Ct (GFP-tagged C-terminal region) (Arabidopsis thaliana) (UniProt Q0WVK0); assay: as above
[4] = target: T1, Hs_emerin-Myc (human) (UniProt P50402); assay: co-IP; Xenopus embryos co-injected with mRNAs, collected at the late blastula stage (stage 9), lysis buffer A; immunoprecipitation against Myc, western blot with anti-Myc or anti-HA
T1 sequence: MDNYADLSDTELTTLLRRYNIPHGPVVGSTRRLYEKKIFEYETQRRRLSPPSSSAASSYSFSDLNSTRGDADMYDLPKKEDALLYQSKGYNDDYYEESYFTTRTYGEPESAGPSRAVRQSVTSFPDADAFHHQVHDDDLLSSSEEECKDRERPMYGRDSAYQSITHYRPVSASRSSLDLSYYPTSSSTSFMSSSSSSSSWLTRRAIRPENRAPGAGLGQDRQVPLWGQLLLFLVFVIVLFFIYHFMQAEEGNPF

binding [1] | binding [2] | binding [3] | binding [4] | Substance
binds weakly | binds | binds weakly | – | Myc-tagged At_Ran2 (from UniProt P41917 1-221)
– | – | – | binds | Xl_Nemp1 (Xenopus laevis Nemp1), wild type
